From publication PMC6713698 come the findings set out here.

Protein sequences, listed by entry. Tags and fused reporters are not part of them.
UniProt P10275: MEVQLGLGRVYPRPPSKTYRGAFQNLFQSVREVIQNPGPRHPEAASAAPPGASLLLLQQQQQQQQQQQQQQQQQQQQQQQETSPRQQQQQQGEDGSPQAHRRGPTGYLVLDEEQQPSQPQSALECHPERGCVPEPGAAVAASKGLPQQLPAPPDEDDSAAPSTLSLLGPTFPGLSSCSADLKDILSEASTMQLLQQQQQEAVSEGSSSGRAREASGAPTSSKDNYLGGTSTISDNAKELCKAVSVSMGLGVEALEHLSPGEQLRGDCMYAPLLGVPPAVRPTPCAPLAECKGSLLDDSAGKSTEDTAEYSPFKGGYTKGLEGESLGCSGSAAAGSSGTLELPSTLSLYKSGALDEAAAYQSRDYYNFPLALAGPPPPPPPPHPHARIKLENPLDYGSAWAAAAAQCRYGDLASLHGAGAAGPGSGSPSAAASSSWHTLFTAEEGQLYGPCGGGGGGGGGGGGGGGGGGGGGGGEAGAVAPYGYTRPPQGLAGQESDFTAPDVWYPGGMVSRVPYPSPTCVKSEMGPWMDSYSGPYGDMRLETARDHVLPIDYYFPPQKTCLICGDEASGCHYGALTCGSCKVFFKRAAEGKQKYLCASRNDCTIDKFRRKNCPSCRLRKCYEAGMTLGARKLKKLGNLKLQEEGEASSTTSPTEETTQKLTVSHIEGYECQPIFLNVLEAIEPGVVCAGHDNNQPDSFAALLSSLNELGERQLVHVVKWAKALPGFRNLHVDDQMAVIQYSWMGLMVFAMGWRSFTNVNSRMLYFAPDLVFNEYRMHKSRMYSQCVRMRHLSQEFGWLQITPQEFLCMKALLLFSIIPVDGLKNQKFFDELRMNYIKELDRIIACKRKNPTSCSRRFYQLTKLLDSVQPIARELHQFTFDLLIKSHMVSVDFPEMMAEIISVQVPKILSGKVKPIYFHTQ

Experiment [1] deals with androgen receptor (human (endogenous in primary endometrial stromal cells)) (UniProt P10275). Nature of the experiment: co-IP; PCOS stromal cells left untreated (no DHT); lysate precipitated with anti-AR antibody, blot probed with anti-MAGEA11; IgG as negative control.
Experiment [2] shares this target. Nature of the experiment: co-IP; PCOS stromal cells exposed to 0.1 uM DHT for 24 h, fixed with 4% paraformaldehyde, RIPA lysate; precipitated with anti-AR antibody and A/G PLUS-Agarose beads, blot probed with anti-MAGEA11; IgG as negative control.

Results are given in words; binding and its absence hold for the method and conditions named. In cells and extracts the contact can be indirect. Some entries that bind do so weakly or less than the wild type.

B1: MAGEA11 (protein, UniProt P43364 1-429)
chain: METQFRRGGLGCSPASIKRKKKREDSGDFGLQVSTMFSEDDFQSTERAPYGPQLQWSQDLPRVQVFREQANLEDRSPRRTQRITGGEQVLWGPITQIFPTVRPADLTRVIMPLEQRSQHCKPEEGLQAQEEDLGLVGAQALQAEEQEAAFFSSTLNVGTLEELPAAESPSPPQSPQEESFSPTAMDAIFGSLSDEGSGSQEKEGPSTSPDLIDPESFSQDILHDKIIDLVHLLLRKYRVKGLITKAEMLGSVIKNYEDYFPEIFREASVCMQLLFGIDVKEVDPTSHSYVLVTSLNLSYDGIQCNEQSMPKSGLLIIVLGVIFMEGNCIPEEVMWEVLSIMGVYAGREHFLFGEPKRLLTQNWVQEKYLVYRQVPGTDPACYEFLWGPRAHAETSKMKVLEYIANANGRDPTSYPSLYEDALREEGEGV
With B1, the binding result in experiment [1] is “no binding (condition: cells not treated with DHT)”; in experiment [2], “binds”.
